Laboratory results: PubChem BioAssay AID1259254 (NCATS, 2017)
Test: 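Finding genes that stop cells copying their DNA twice in one cycle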 (primary screen). System: human HCT116 colorectal cancer cells. Reagent: single siRNA against human genes. Duration: 3 days. Measured: 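Imaged Hoechst DNA stain sorts each cell into a cycle phase by DNA amount; per plate, G2 fraction set to 0% for non-targeting and 100% for GMNN siRNA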. Reading the numbers: G2 robust z-score: higher = more G2 cells, more excess DNA replication. Rule for the call: 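An siRNA counts as active if its G2 robust z-score lies at least 5 MADs above the screen median; here such calls match roughly 38% of GMNN control or more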.
The deposit covers about 59,000 reagents; this is an unselected part. About 1,550 of them (2.6%) count as active. 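G2 share is only a proxy for re-replication; each gene was hit by three separate siRNAs, and active genes were retested.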 A number with no mark means an inactive call. Reagents against one gene are numbered here. Further read-outs or replicates are left out here. The record does not give: the amount of reagent.

gene	reagent	G2 robust z-score
KLHDC1	1	1.41
KLHDC1	2	-0.369
KLHDC1	3	-0.925
NOC3L	1	-0.151
NOC3L	2	-0.104
NOC3L	3	1.02
C8A	1	-0.823
C8A	2	-0.262
C8A	3	-0.61
NOL4	1	-0.833
NOL4	2	0.604
NOL4	3	0.0532
REG3G	1	-0.377
REG3G	2	-0.953
REG3G	3	2.62
RPS29P3	1	-0.128
RPS29P3	2	2.43
RPS29P3	3	1.42
DEPP1	1	-0.0188
DEPP1	2	-0.306
DEPP1	3	0.158
PSMC4	1	1.13
PSMC4	2	4.36
PSMC4	3	4.81
MAGEF1	1	3.74
MAGEF1	2	1.2
MAGEF1	3	-1.07
OSTCP1	1	2.46
OSTCP1	2	-0.948
OSTCP1	3	-0.497
NEK4	1	3.06
NEK4	2	2.35
NEK4	3	-0.158
FCMR	1	-0.112
FCMR	2	1.55
FCMR	3	-0.158

A stretch taken from the entries so far:
gene	reagent	G2 robust z-score
KLHDC1	1	1.41
KLHDC1	2	-0.369
KLHDC1	3	-0.925
NOC3L	1	-0.151
NOC3L	2	-0.104
NOC3L	3	1.02
C8A	1	-0.823
C8A	2	-0.262
C8A	3	-0.61
NOL4	1	-0.833
NOL4	2	0.604

Further results follow:
gene	reagent	G2 robust z-score
OR1L8	1	0.307
OR1L8	2	-0.551
OR1L8	3	-0.396
AK4	1	-0.298
AK4	2	0.376
AK4	3	-0.128
AK4	4	-0.706
AK4	5	1.63
AK4	6	-0.185
KRT28	1	1.42
KRT28	2	-0.782
KRT28	3	3.38
RAB1A	1	4.17
RAB1A	2	-0.565
RAB1A	3	0.211
ST8SIA5	1	1.4
ST8SIA5	2	0.772
ST8SIA5	3	1.22
RMND5A	1	-0.504
RMND5A	2	-0.637
RMND5A	3	3.83
PRKAA2	1	-0.694
PRKAA2	2	-0.923
PRKAA2	3	3.06
SPIDR	1	0.36
SPIDR	2	0.151
SPIDR	3	0.462
UBE2D1	1	-0.892
UBE2D1	2	-0.786
UBE2D1	3	0.821
PSME2	1	1.29
PSME2	2	-0.304
PSME2	3	-0.598
SSR3	1	-0.734
SSR3	2	2.32
SSR3	3	2.1
MUC5B	1	-0.22
MUC5B	2	-0.51
MUC5B	3	1.5
ZBTB26	1	-0.72
ZBTB26	2	0.498
ZBTB26	3	-0.552
DEPTOR	1	-0.677
DEPTOR	2	-0.185
DEPTOR	3	-0.845
SPSB3	1	3.46
SPSB3	2	0.778
SPSB3	3	-0.476
CACNA2D1	1	0.169
CACNA2D1	2	-0.866
CACNA2D1	3	0.454
